Results reported in PubChem BioAssay (Tox21).
Several values for one entry are separate records, joined by “and”; a condition that tells them apart may be missing. Identical values can stand only once. Inconclusive means that the source gave no clear call. Such entries were picked first, then a sample of the others. For some of these results: Potencies beside an inconclusive call are fits to weak or partial responses and may not hold up. Some structures have more than one record in an assay (separate samples or runs), and their calls can disagree. Activity calls are given as the source filed them. Unless noted, calls come from the whole dose curve.

Protein sequences, listed by entry. Tags and fused reporters are not part of them. Lines headed by an entry give the natural chain unless they say otherwise; changes in a name come on top.
UniProt P14416, whole entry, looked up: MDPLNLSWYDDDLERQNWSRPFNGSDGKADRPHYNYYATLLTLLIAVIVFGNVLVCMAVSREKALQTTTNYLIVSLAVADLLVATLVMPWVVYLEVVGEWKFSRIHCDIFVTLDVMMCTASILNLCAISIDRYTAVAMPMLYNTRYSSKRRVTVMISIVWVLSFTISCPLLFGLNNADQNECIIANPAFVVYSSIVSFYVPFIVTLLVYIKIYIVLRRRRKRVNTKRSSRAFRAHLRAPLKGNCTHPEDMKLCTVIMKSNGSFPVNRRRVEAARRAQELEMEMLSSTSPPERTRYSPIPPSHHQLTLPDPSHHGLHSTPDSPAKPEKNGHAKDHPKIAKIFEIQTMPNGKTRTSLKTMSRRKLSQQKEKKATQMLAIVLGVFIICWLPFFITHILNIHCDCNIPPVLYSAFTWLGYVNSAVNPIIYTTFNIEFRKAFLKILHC
UniProt P11229: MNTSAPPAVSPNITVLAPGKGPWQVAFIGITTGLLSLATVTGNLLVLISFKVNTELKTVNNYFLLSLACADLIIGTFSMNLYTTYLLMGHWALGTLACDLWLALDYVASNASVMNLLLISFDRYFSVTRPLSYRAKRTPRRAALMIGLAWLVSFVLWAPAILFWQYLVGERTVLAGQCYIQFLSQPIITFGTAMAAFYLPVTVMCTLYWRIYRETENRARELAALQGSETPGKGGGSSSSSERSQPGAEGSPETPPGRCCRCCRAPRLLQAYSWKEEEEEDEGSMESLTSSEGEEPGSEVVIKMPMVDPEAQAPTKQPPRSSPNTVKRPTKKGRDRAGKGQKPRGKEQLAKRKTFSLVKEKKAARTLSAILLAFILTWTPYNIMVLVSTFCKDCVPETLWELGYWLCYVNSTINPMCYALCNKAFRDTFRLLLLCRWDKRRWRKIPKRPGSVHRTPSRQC
UniProt P28223, whole entry, looked up: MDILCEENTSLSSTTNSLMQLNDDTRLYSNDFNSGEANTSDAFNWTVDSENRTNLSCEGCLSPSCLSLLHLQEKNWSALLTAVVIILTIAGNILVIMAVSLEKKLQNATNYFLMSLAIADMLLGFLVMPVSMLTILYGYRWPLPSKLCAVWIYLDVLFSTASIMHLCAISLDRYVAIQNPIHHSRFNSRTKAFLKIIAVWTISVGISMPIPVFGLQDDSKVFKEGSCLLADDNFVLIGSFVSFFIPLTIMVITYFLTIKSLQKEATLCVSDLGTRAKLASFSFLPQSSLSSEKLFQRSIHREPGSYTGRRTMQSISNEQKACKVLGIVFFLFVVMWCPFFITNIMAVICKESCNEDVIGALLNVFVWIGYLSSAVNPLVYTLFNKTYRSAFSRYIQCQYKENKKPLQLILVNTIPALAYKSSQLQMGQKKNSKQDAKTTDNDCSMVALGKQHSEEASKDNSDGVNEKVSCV

Tests used:
[1] = Nuclear factor erythroid 2-related factor 2/antioxidant responsive element (Nrf2/ARE) small molecule agonists: luciferase reporter gene qHTS assay in human keratinocytes (AID 1919969); conditions: KeratinoSens HaCaT ARE-luciferase, luminescence, 24 h; activity, positive = activation: at 92.4 µM (top of the series); note: nearly all actives have a fitted effect of over 35% in size; for activity, positive = activation: % is set by controls: 0 for no effect and ±100 for the full control effect
[2] = p53 small molecule agonists, cell-based qHTS assay with human liver microsomes: qHTS cell viability counter screen (AID 1963579); note: nearly all actives have a fitted effect of over 45% in size
In short: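 p53RE-bla cells, 4,000/well, dosed 5 hours after plating, with human liver microsomes (0.5 mg/mL final) plus NADPH (0.5 mg/mL final), 16 hours at 37 C. Viability read as CellTiter-Glo luminescence after 30 min at room temperature.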

[3] = p53 small molecule agonists, cell-based qHTS assay with rat liver microsomes: qHTS cell viability counter screen (AID 1963580); note: nearly all actives have a fitted effect of over 45% in size
In short: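 Cytotoxicity counter screen: intracellular ATP read by CellTiter-Glo luminescence in the p53 reporter wells. HCT-116 p53RE-bla cells were treated for 16 h at 37 C alongside rat liver microsomes and NADPH, each 0.5 mg/mL final.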

[4] = biological target: D(2) dopamine receptor (Homo sapiens) (UniProt P14416); assay: Dopamine D2 receptor (DRD2) small molecule agonists, cell-based qHTS assay (AID 1963594); conditions: HEK293-DRD2 cAMP HTRF, agonist mode, 30 min; activation: at 92.4 µM (top of the series) unless noted; note: nearly all actives have a fitted effect of over 35% in size
In short: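 cAMP accumulation in DRD2-HEK293 cells measured by HTRF after 1 h detection; compounds added 10 min before NKH477 (200nM […]) forskolin-analogue stimulation, 30 min at room temperature, with Ro20-1724 present at 0.1 mM final.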

[5] = p53 small molecule agonists, cell-based qHTS assay with rat liver microsomes (AID 1963578); conditions: HCT-116 p53RE-bla, beta-lactamase ratio, 16 h; activation: at 66 µM (top of the series) unless noted; for activation: % is set by controls: 0 for no effect and ±100 for the full control effect
In short: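 p53RE-bla cells, 4,000/well, pre-incubated 5 h, then given compounds plus rat liver microsomes (0.5 mg/mL final) and NADPH (0.5 mg/mL final). Incubation 16 h at 37 C; beta-lactamase reporter read by LiveBLAzer fluorescence after 2 h at room temperature.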

[6] = biological target: Muscarinic acetylcholine receptor M1 (Homo sapiens) (UniProt P11229); assay: Cholinergic receptor muscarinic 1 (CHRM1) small molecule antagonists, cell-based qHTS assay (AID 1963588); note: nearly all actives have a fitted effect of over 40% in size
In short: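 Compounds were tested at 15 concentrations in three independent runs. Dye-loaded CHRM1-CHO cells were exposed 5 min at room temperature before stimulation by acetylcholine added at 50nM. Intracellular calcium was read kinetically on FDSS for 3 min.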

[7] = cAMP Responsive Elements (CRE) small molecule agonists, cell-based qHTS assay (AID 1963590); conditions: CRE-bla HEK293T, beta-lactamase FRET ratio, 3 h; activation: at 92.4 µM (top of the series) unless noted
In short: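 HEK 293T cells stably bearing CRE-bla were plated at 2,000 cells per well and rested 18 h. Compounds, positive controls or DMSO were added for 3 h at 37 C. LiveBLAzer B/G substrate was then loaded for 2 h at room temperature.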

[8] = cAMP Responsive Elements (CRE) small molecule antagonists, cell-based qHTS assay (AID 1963591; active = well fitted inhibition curve with a large enough effect in the signal ratio in the repeat runs, not every such curve was filed as active; inconclusive = weak or mixed curves, or effect the other way; the % refers to the signal ratio; for activity change, negative = inhibition: % is set by controls: 0 for no effect and ±100 for the full control effect); conditions: CRE-bla HEK293T, beta-lactamase FRET ratio; activity change, negative = inhibition: at 92.4 µM (top of the series) unless noted
In short: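 First, CRE-bla HEK293T cells settled 18 h at 37 C. Next, compound and 0.25 uM final NKH477 were applied for 3 h. Last, LiveBLAzer B/G substrate was loaded for 2 h at room temperature.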

[9] = p53 small molecule agonists, cell-based qHTS assay: qHTS cell viability counter screen (AID 1963581); note: nearly all actives have a fitted effect of over 45% in size
In short: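 ATP content measured by luminescence in HCT-116 p53RE-bla cells treated 16 h at 37 C, same wells as the reporter screen.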

[10] = biological target: Beta-2 adrenergic receptor (Homo sapiens) (UniProt P07550); assay: Adrenergic beta2 receptor (ADRB2) small molecule agonists, cell-based qHTS assay (AID 1963593); conditions: CHO-ADRB2 cells, cAMP HTRF, 30 min; activation: at 92.4 µM (top of the series) unless noted;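 for activation: CHO cells stably overexpressing human ADRB2; % is set by controls: 0 for no effect and ±100 for the full control effect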
In short: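 CHO cells stably over-expressing ADRB2 were plated overnight at 37C, then dosed with compounds plus a stimulation mix containing 100uM IBMX and 25uM Ro-20-1724 for 0.5hr at room temperature. cAMP was measured by HTRF competition, 1hr.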

[11] = p53 small molecule agonists, cell-based qHTS assay (AID 1963582; active = well fitted activation curve with a large enough effect in the signal ratio in the repeat runs, not every such curve was filed as active; inconclusive = weak or mixed curves; the % refers to the signal ratio); conditions: HCT-116 p53RE-bla reporter, beta-lactamase FRET ratio, 16 h; activation: at 66 µM (top of the series) unless noted
In short: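 16 h compound exposure (37 C) of p53 response element–bla cells, preceded by 5 h recovery at 37 C/5% CO2; read-out via LiveBLAzer B/G FRET substrate, 2 h RT, fluorescence intensity.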

[12] = biological target: 5-hydroxytryptamine receptor 2A (Homo sapiens) (UniProt P28223); assay: 5-hydroxytryptamine receptor 2A (HTR2A) small molecule antagonists, cell-based qHTS assay (AID 1963586); note: nearly all actives have a fitted effect of over 45% in size
In short: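 CHO cells stably expressing human HTR2A were plated for 18 h at 37 C, then loaded with calcium dye for 1 h. Compounds were preincubated 5 min at room temperature before DOI (4 nM solution) was added. Kinetic fluorescence was read for 3 min.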

[13] = biological target: 5-hydroxytryptamine receptor 2A (Homo sapiens) (UniProt P28223); assay: 5-hydroxytryptamine receptor 2A (HTR2A) small molecule agonists, cell-based qHTS assay (AID 1963587); note: nearly all actives have a fitted effect of over 30% in size
In short: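 Kinetic calcium-flux fluorescence (2 min, 1 sec intervals) after compound addition in agonist mode. HTR2A-CHO cells were cultured 18 h, then dye-loaded 1 h at 37 C.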

[14] = biological target: D(2) dopamine receptor (Homo sapiens) (UniProt P14416); assay: Dopamine D2 receptor (DRD2) small molecule antagonists, cell-based qHTS assay (AID 1963595; active = well fitted inhibition curve with a large enough effect in the signal ratio in the repeat runs, with a control signal flat; inconclusive = weak or mixed curves, or effect the other way; the % refers to the signal ratio); conditions: HEK293-DRD2 cAMP HTRF antagonist mode; activity change, negative = inhibition: at 92.4 µM (top of the series) unless noted
In short: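 DRD2-HEK293; 0.1 mM Ro20-1724; cpd 10 min RT; NKH477 200 nM + quinpirole 12 nM, 30 min RT; HTRF cAMP (cAMP-d2/anti-cAMP cryptate), 665/620 nm ratio after 1 h.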

[15] = biological target: Beta-2 adrenergic receptor (Homo sapiens) (UniProt P07550); assay: Adrenergic beta2 receptor (ADRB2) small molecule antagonists, cell-based qHTS assay (AID 1963592); conditions: CHO-ADRB2 cells, isoproterenol-stimulated cAMP HTRF ratio, 0.5 h; activity change, negative = inhibition: at 92.4 µM (top of the series) unless noted; note: nearly all actives have a fitted effect of over 50% in size
In short: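 Assay format: CHO-ADRB2 cells, 18-20hr seeding at 37C/5% CO2, then compound plus 1nM isoproterenol agonist mix for 0.5hr RT. Homogeneous time-resolved fluorescence cAMP detection after 1hr, expressed as 665/615 nm ratio.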
Potency is the fitted concentration of half-maximal effect.

O=C(O[C@@H]1Cc2c(O)cc(O)cc2O[C@@H]1c1cc(O)c(O)c(O)c1)c1cc(O)c(O)c(O)c1
Potency [1]: inconclusive: 68.7 µM [activator, partial curve, poor fit]
Potency [2]: inconclusive: 18.3 µM [rising, full curve, poor fit]
Potency [3]: inconclusive: 10.3 µM [cytotoxic, single point]
Potency [4]: inconclusive: 68.7 µM [falling, partial curve, poor fit]

O=C(O)Cc1ccc(Cl)cc1Cl
Potency [1]: inconclusive: 77 µM [activator, partial curve, poor fit]
Potency [2]: inconclusive: 51.3 µM [cytotoxic, single point]

C/C=C/C=C/COC(=O)C(C)C
Potency [1]: active: 68.6 µM
Potency [5]: inactive
Potency [6]: inactive
Potency [7]: inconclusive: 61.1 µM [rising, partial curve, poor fit]
activity change, negative = inhibition [8]: inconclusive: 3.75%

O=C1O[C@H]([C@@H](O)CO)C(O)=C1O
Potency [1]: active: 61.1 µM and inconclusive: 76.4 µM [activator, single point]
Potency [2]: inactive and inconclusive: 57.2 µM [cytotoxic, single point]
Potency [3]: inconclusive: 18.2 µM [rising, single point]
Potency [9]: inconclusive: 45.7 µM [rising, partial curve, poor fit]
Potency [10]: inactive
Potency [4]: inconclusive: 2.43 µM [falling, single point]

CC(C)c1cccc(C(C)C)c1NC(=O)NS(=O)(=O)c1cc(C(C)(C)O)co1
Potency [1]: inconclusive: 68.6 µM [activator, single point]
Potency [2]: inconclusive: 0.913 µM [cytotoxic, single point]

O=C(O)c1cc(Br)c(O)c(Br)c1
Potency [1]: inconclusive: 68.6 µM [activator, single point]
Potency [2]: inconclusive: 51.3 µM [cytotoxic, single point]
Potency [3]: inconclusive: 45.8 µM [rising, single point]
Potency [10]: inactive

Oc1ccc(C2(c3ccc(O)cc3)CC3CC2C2CCCC32)cc1 (centres undefined)
Potency [1]: inconclusive: 23.4 µM [activator, single point]
Potency [2]: active: 17.5 µM
Potency [3]: inconclusive: 43.9 µM [cytotoxic, single point]
Potency [11]: inconclusive: 49.3 µM [single point]
Potency [12]: inconclusive: 45.3 µM [inhibitor, single point]
Potency [13]: inconclusive: 52.8 µM [activator]
Potency [7]: inconclusive: 65.9 µM [rising, partial curve, poor fit]
Potency [8]: active: 65.9 µM
Potency [14]: inconclusive: 65.9 µM [inhibitor, single point]

CC1COc2ccccc2N1C(=O)C(Cl)Cl (centres undefined)
Potency [1]: active: 21.6 µM and inconclusive: 34.3 µM [activator, partial curve]
Potency [2]: inconclusive: 51.2 µM [rising, single point]
Potency [3]: inconclusive: 45.7 µM [cytotoxic, single point]
Potency [6]: inconclusive: 0.334 µM [inhibitor, full curve]
activation [10]: inconclusive: 7.06%

CCOC(=O)c1c(N)sc2c1CCN(Cc1ccccc1)C2
Potency [1]: inactive
Potency [5]: active: 15.8 µM
activity change, negative = inhibition [8]: inconclusive: -0.185% [at 42.4 µM]
Potency [10]: inactive

CCc1ccc(C(c2ccc(CC)cc2)C(Cl)Cl)cc1
Potency [1]: inactive and active: 27.3 µM
Potency [5]: inconclusive: 41.5 µM [fluorescent, partial curve]
Potency [8]: inactive
Potency [10]: inactive

Nc1ccc(O)cc1
Potency [1]: inconclusive: 11.9 µM [activator, partial curve]
Potency [2]: inconclusive: 53.3 µM [cytotoxic, single point]
Potency [3]: inconclusive: 47.5 µM [cytotoxic, partial curve, poor fit]
Potency [9]: inconclusive: 47.5 µM [cytotoxic, single point] and inactive
Potency [12]: inconclusive: 49 µM [inhibitor, single point] and inconclusive: 20.5 µM [inhibitor, single point]
Potency [7]: inconclusive: 40.1 µM [rising, partial curve, poor fit]
activation [7]: inconclusive: 18% [at 42.5 µM]
Potency [15]: inconclusive: 45 µM [falling, partial curve, poor fit]
activation [10]: inconclusive: -0.164%
Potency [4]: inconclusive: 56.6 µM

Cc1c(O)cccc1C(=O)N[C@@H](CSc1ccccc1)[C@H](O)CN1C[C@H]2CCCC[C@H]2C[C@H]1C(=O)NC(C)(C)C
Potency [1]: inconclusive: 47.3 µM [activator, partial curve, poor fit]
Potency [2]: inconclusive: 15.8 µM [cytotoxic, partial curve]
Potency [3]: inconclusive: 0.889 µM [cytotoxic, single point]
Potency [9]: inconclusive: 25.1 µM [cytotoxic, partial curve] and inconclusive: 15.8 µM [cytotoxic]
Potency [11]: inconclusive: 8.9 µM [rising, single point]
activation [11]: inconclusive: 23.6%
Potency [15]: inconclusive: 18.8 µM [inhibitor, partial curve] and inconclusive: 9.44 µM [inhibitor, full curve, poor fit]
Potency [10]: inconclusive: 18.8 µM [inhibitor, partial curve] and inconclusive: 10.6 µM [inhibitor]
Potency [4]: inconclusive: 33.5 µM
